In the supplement of paper PMC10849652:
This is one part of the list.

Chains of the proteins cited; added tags and fusions are not shown. Lines headed by an entry give the natural chain unless they say otherwise; changes in a name come on top.
UniProt Q8TCA0: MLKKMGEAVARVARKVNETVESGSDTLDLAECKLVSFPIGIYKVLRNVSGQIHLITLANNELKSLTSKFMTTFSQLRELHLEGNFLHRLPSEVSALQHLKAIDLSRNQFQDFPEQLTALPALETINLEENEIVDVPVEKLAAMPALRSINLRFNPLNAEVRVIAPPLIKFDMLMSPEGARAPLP
UniProt Q96GY3: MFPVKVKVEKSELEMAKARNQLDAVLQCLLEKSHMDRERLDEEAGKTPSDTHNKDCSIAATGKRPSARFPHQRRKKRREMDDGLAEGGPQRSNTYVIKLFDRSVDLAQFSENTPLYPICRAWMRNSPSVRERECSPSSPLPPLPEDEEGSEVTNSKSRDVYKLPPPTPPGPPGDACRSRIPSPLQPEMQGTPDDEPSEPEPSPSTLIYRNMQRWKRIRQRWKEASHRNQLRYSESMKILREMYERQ
UniProt Q9H9A6: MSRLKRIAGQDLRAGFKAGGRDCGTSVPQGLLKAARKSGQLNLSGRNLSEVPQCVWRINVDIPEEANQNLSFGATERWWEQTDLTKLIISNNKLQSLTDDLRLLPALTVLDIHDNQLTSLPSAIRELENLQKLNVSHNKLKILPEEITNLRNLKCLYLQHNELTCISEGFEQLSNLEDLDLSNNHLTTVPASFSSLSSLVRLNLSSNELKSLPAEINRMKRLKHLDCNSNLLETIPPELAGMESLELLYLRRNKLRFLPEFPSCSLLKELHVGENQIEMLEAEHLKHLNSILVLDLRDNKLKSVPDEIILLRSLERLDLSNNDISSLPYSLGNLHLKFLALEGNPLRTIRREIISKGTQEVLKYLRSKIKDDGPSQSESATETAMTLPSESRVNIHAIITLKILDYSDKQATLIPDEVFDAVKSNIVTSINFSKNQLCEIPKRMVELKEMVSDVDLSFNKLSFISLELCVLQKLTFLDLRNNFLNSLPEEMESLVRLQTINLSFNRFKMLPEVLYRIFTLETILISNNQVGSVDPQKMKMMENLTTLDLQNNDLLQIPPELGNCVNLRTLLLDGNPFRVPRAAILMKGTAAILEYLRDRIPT
UniProt O95214: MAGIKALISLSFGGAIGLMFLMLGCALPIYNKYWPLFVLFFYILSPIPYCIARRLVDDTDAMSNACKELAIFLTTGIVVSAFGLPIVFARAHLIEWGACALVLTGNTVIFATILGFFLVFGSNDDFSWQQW
UniProt Q8NG48: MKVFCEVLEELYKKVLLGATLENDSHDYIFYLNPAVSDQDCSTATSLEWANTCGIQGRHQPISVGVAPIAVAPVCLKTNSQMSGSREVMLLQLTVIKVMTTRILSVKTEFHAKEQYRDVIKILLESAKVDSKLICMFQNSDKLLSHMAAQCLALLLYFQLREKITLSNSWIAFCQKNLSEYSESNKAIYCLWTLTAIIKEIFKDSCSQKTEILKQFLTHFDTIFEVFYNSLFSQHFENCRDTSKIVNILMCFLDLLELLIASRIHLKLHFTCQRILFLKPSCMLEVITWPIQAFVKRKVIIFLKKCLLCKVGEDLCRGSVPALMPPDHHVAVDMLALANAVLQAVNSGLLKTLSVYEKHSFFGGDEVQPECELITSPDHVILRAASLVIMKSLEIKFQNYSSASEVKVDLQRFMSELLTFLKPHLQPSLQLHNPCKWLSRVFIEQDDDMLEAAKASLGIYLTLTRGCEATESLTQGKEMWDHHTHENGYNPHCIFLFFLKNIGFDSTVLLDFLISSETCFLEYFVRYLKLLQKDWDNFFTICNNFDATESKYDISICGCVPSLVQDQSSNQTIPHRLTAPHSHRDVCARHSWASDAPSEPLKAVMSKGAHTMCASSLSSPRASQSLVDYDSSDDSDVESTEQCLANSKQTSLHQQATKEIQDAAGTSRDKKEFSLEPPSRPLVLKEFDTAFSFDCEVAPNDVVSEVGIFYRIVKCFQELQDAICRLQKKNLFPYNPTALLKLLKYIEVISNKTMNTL
UniProt Q6UWP7: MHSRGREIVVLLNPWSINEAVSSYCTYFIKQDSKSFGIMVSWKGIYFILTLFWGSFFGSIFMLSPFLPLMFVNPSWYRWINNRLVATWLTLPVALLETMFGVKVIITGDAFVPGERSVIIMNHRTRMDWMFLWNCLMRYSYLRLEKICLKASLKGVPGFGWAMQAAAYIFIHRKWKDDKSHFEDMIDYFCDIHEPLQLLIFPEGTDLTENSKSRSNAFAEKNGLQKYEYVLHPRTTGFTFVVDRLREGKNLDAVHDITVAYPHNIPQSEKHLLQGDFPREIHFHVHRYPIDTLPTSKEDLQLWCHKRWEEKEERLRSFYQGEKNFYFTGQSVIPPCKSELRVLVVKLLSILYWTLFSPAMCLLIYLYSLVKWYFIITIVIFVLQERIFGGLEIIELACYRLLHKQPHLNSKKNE
UniProt P49917: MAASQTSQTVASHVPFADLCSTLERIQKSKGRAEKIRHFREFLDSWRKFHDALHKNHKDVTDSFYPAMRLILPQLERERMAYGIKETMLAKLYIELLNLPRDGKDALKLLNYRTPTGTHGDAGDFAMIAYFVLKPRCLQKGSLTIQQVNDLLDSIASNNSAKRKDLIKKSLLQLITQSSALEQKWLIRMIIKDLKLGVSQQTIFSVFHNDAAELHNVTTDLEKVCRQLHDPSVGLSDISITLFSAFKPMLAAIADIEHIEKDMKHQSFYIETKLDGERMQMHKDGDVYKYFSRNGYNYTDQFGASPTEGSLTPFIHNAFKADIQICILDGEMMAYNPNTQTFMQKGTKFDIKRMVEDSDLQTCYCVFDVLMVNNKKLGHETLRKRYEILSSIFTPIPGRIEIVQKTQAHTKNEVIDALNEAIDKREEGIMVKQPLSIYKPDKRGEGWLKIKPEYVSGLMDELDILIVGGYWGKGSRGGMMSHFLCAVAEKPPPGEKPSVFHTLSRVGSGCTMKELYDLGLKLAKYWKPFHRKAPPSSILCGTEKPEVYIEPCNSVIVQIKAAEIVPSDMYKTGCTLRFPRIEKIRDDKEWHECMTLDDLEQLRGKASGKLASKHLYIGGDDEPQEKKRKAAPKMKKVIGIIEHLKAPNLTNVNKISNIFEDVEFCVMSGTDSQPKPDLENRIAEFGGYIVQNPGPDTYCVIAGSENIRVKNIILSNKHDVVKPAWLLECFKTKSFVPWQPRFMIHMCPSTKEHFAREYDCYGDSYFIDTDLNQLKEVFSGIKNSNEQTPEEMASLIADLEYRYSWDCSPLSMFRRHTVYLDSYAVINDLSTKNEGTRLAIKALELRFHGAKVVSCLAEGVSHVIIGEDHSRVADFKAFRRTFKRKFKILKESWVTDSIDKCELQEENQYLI
UniProt P48059, whole entry, looked up: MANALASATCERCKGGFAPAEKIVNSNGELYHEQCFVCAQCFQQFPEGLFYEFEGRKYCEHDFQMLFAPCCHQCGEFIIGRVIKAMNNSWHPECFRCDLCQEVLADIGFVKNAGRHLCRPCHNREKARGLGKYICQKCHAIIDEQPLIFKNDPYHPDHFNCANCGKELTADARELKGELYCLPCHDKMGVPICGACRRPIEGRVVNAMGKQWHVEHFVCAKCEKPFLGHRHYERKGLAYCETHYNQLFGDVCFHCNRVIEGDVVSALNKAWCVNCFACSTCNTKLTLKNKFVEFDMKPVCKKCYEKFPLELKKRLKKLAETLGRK
UniProt Q9NUP9: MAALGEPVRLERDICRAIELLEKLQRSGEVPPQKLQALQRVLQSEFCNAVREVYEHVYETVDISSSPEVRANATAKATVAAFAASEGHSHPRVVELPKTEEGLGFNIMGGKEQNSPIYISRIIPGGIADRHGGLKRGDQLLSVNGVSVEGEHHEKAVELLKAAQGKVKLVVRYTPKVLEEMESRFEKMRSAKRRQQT
UniProt P62310: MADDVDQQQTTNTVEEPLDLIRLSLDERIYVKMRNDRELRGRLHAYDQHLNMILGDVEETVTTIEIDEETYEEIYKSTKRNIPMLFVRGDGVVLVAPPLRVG
UniProt Q9H6V9: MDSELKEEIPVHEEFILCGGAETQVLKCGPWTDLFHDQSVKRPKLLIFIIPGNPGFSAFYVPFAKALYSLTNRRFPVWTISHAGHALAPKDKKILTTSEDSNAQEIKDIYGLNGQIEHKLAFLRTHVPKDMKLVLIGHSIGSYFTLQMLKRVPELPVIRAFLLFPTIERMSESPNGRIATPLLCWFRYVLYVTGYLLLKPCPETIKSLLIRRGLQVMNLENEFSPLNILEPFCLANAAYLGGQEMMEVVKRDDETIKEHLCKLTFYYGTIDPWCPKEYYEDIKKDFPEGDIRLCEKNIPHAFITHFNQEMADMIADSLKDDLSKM
UniProt Q15334: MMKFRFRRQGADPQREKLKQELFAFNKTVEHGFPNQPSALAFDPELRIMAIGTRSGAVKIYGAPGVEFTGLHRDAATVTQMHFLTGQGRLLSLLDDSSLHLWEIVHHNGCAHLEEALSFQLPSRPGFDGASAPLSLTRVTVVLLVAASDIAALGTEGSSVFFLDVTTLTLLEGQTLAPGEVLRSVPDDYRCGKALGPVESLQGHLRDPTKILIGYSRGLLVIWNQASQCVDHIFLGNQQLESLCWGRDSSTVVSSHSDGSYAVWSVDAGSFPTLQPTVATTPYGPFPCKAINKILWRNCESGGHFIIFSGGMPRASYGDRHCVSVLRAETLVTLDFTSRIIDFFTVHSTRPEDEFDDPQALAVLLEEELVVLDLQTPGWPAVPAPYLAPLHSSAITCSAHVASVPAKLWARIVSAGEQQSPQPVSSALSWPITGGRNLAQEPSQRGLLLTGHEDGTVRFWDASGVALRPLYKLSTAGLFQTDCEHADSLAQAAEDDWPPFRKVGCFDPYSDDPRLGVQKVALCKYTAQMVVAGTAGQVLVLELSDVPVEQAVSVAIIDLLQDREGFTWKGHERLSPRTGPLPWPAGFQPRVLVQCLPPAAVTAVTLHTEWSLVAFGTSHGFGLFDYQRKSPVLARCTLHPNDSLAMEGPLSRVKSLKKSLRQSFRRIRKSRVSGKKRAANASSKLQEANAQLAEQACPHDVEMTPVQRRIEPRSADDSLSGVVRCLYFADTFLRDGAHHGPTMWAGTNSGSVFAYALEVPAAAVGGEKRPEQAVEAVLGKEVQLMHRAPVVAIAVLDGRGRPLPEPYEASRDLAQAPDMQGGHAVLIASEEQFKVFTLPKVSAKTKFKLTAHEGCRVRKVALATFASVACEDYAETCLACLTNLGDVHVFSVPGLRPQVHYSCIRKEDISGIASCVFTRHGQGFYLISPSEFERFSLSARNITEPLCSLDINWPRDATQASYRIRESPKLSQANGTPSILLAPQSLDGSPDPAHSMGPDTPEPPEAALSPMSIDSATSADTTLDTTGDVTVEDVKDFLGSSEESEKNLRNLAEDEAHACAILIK
UniProt P53671: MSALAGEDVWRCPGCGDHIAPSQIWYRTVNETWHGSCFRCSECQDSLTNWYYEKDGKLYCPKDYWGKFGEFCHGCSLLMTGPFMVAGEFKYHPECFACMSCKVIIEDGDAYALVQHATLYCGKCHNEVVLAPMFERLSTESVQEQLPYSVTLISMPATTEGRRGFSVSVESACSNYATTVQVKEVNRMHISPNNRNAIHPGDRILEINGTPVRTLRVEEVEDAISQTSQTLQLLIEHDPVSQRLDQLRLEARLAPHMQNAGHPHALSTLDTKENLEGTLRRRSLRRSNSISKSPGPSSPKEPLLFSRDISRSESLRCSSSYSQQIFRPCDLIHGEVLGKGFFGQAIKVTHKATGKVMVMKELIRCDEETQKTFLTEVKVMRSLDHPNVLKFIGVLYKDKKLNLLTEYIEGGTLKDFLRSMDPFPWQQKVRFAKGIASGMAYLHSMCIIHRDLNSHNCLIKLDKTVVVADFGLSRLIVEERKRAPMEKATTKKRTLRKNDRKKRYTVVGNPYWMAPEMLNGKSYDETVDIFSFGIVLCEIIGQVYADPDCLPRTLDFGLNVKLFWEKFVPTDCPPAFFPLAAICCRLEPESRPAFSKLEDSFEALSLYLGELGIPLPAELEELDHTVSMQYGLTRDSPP
UniProt P20700: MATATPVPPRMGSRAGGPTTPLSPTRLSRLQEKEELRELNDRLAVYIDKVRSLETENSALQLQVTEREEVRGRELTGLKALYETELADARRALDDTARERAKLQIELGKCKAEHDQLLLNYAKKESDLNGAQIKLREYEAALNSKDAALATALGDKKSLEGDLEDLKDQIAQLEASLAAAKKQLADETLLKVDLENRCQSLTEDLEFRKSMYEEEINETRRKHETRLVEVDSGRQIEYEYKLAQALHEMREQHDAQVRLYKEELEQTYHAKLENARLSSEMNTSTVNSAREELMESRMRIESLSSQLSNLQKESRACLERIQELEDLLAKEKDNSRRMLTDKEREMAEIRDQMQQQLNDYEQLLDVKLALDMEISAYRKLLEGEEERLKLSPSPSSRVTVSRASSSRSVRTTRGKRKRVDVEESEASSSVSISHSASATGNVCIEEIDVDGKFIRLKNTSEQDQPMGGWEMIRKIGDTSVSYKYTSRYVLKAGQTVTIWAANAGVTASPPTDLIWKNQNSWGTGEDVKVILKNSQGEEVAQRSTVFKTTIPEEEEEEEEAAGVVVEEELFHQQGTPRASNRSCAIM

compound: Cc1sc2c(c1C)C(c1ccc(Cl)cc1)=N[C@@H](CC(=O)OC(C)(C)C)c1nnc(C)n1-2; experiment: log2 fold change, soluble protein after heating vs DMSO (PISA); higher = thermal stabilisation; K562 lysate, 10 uM; active = over 0.2 and 3.5 SD of the protein, either way, in both replicates (recomputed)
In short: (§1)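 Quantification was by TMTpro 16plex LC-MS/MS with equalised channel sums, applied to the supernatant after 21,000xg for 90 min. Samples were crude K562 extract at 1 mg/mL protein in PBS pH 7.4 with 1 mM MgCl2, treated with 10 μM compound for 30 min, heated for 3 min across 48°C-58°C, pooled and brought to 0.5% NP-40 at 4°C. Values are log-two fold changes in thermal stability relative to solvent controls, from duplicates.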

| Target | log2 fold change |
| --- | --- |
| LRSAM1 (UniProt Q6UWE0) | inactive: -0.001 |
| LMAN1 (UniProt P49257) | inactive: 0.025 |
| LDHC (UniProt P07864) | inactive: -0.046 |
| LRRC20 (UniProt Q8TCA0) | inactive: -0.019 |
| LIN37 (UniProt Q96GY3) | inactive: -0.052 |
| LRBA, A0A494BZW2 | inactive: -0.033 |
| LRRC40 (UniProt Q9H9A6) | inactive: 0.012 |
| LMTK2 (UniProt Q8IWU2) | inactive: -0.137 |
| LEPROTL1 isoform 2 (UniProt O95214) | inactive: -0.032 |
| LARS (UniProt Q9P2J5) | inactive: 0.04 |

compound: c1ccc([C@@H]2C[C@H]2NC2CCNCC2)cc1; experiment: as above
In short: as §1

| Target | log2 fold change |
| --- | --- |
| LINS1 (UniProt Q8NG48) | inactive: 0.009 |
| LLPH (UniProt Q9BRT6) | inactive: 0.106 |
| LCLAT1 (UniProt Q6UWP7) | inactive: -0.014 |
| LIG4 (UniProt P49917) | inactive: 0.078 |
| LRCH4 (UniProt O75427) | inactive: 0.029 |
| LIMS1 isoform 3 (UniProt P48059) | inactive: -0.057 |
| LSM14B isoform 2 (UniProt Q9BX40) | inactive: 0.007 |
| LIMD1 (UniProt Q9UGP4) | inactive: -0.038 |
| LCP2 (UniProt Q13094) | inactive: 0.013 |
| LIN7C (UniProt Q9NUP9) | inactive: 0.028 |
| LSM3 (UniProt P62310) | inactive: -0.079 |
| LMNA (UniProt P02545) | inactive: 0.019 |
| LDAH isoform 2 (UniProt Q9H6V9) | inactive: -0.002 |
| LRRC47 (UniProt Q8N1G4) | inactive: 0.009 |
| LLGL1 (UniProt Q15334) | inactive: 0.074 |
| LIMK2 isoform 3 (UniProt P53671) | inactive: -0.132 |
| LDB1 (UniProt Q86U70) | inactive: -0.069 |
| LMNB1 (UniProt P20700) | inactive: -0.004 |
| LRRC4B (UniProt Q9NT99) | inactive: 0.05 |
| LGALS8 isoform 2 (UniProt O00214) | inactive: -0.006 |
| LRSAM1 (UniProt Q6UWE0) | inactive: -0.011 |
| LMAN1 (UniProt P49257) | inactive: 0.015 |
| LRRC20 (UniProt Q8TCA0) | inactive: 0.015 |
| LIN37 (UniProt Q96GY3) | inactive: -0.142 |
| LRBA, A0A494BZW2 | inactive: 0.039 |
| LRRC40 (UniProt Q9H9A6) | inactive: 0.034 |
| LMTK2 (UniProt Q8IWU2) | inactive: 0.009 |
| LARS (UniProt Q9P2J5) | inactive: 0.077 |
